No constants are given. Whether binding was seen depends on the method and setting. Some binding calls cover weakened binding; strength is not graded here.
Tests used:
[1] = target: EYFP-CREB-NLS fusion protein (Aequorea victoria; human) (UniProt P16220); test: BRET timecourse in CHO-K1 cells transfected with both constructs, BRETCount, ratio 550/470 nm
[2] = target: EYFP-CREB-NLS fusion protein (Aequorea victoria; human) (UniProt P16220); test: BRET timecourse in CHW-β2 cells transfected with both constructs, BRETCount

For “Rluc-CBP-NLS fusion protein (from UniProt Q92793 462-661)”, the binding [1] was “binds” and the binding [2] was “binds”.
